Laboratory results taken from article PMC5895051.
Results are given in words; binding and its absence hold for the method and conditions named. Binding seen in cells or lysates may run through a third protein.

molecular target: GST-MYND, purified MYND domain of ZMYND10; assay: pull-down; purified GST-ZMYND10 (full length) or GST-MYND as bait; lysates from mTECs; immunoblot; only the target purified

binding	Binder
no binding	LRRC6, endogenous in mouse tracheal epithelial cells (protein, UniProt O88978 1-473) MGRITEDLIRRNAEHNDCVIFSLEELSLHQQEIERLEHIDKWCRDLKILYLQNNLIGKIENVSKLKKLEYLNLALNNIERIENLEGCEWLTKLDLTVNFIGELSSVKTLTHNIHLKELFLMGNPCADFDGYRQFVVVTLQQLKWLDGKEIERSERIQALQNYTSVEQQIREQEKAYCLRRAKEKEEAQRKLEEENESEDKKKSSTGFDGHWYTDIHTACPSATENQDYPQVPETQEEQHNTKESDDIEDDLAFWNKPSLFTPESRLETLRHMEKQRKAQDKLSEKKKKAKPPRTLITEDGKVLNVNEAKLDFSLKDDEKHNQIILDLAVYRYMDTSLIEVDVQPTYVRVMVKGKPFQLALSTEVQPDRSSAKRSQTTGHLLICMPKVGEMITGGQRTPTSVKTTSTSSREQTNPRKKQIERLEVDPSKHSCPDVSTIVQEKRHRPKRMESQPRDEPSEEDPDFEDNPEVPPLI
no binding	IQUB, endogenous in mouse tracheal epithelial cells (protein, UniProt Q8CDK3 1-788) MSDPEEERVADSTAHYEEAGKVISIPRPSDEAEGSDVMPEQDDEVQELTTESEENVERHSEFSLSTPKSDDSKPREEVTSLGSASGSQDQDYRLLDYQKGEDDELLFLHKIKAIKETLQTSVRESIATVKIVLIPAGQEIIMPFRVDAPFRFLKEHFAHLLHIPHYVLQITHEGIIVGNNESLIQYGIKPQEIVQVEVFSTLPDQYPVRRIEGLSEGSQIITVTIQTSIDRYEEVAVEIIKSDFHKPFLGGFRHKITGLEYHNAGTQTVPRKIPEKDNLFCRDTQTVFQKKKLQQTTNTTSTQMTKIGVYVSNMTDKLLKPGNYFSAAEYHARRLHAVIVIQTSYRRWHAKRYVESLRKQKKLRLEWEEEQELLKIQEKEEWIRMDYYRRHNPKTTEDFELLYNALELWRQEEVEQICHYSSEAERKAALCELLEKETQMIASIGRHRSAARMERQDAAIQAFLDKCSAPNVWRRGDGKTIEMDTQFTIRARELQSIYKCILLKDLSQDERLDILLTLKHTVKEHECKLTQEILELIDREVDLMMRGVKPHNLEGLRKRITTLFIHYIKTPLFNPEVAKYLKVPQDPLKFYDTIYFCHSCQNYLPSVEFSVSPTSHRVYRCRHCINLENETQRRESFLKYKCLLQRLYYSEADYGDNSQIAFLMQLQDIKYLTENIWASQSALSAWDDLNDLVMVRWDKHVEWSPWNCILLTKDESTAHLRLPSIEKGYGHHFVHKIKHKHILAKNYFSQIPTLASLILNDDEVEDIRSKHSTKSPPKIIITRRIQPH
no binding	DNAI1, endogenous in mouse tracheal epithelial cells (protein, UniProt Q8C0M8 1-701) MPSKQIRKQSISVTRGARRRDEDSGTDVGEGTDEWSQSKATVRPPDQLELTDAELKEEFTRILTANNPHAPQNIVRYSFKEGTYKLIGFVNQMAVHFSQVGNLIPKDSDEGRRQHYRDEMVAGSQESIKVVTSEAENLEEEEEPKEGEGEAEAEAEAGSQTDIPAAAETTEKVIEEELMAPVQPKERKLTNQFNFSERASQTFNNPLRDRECQMEPPPRTNFSATANQWEIYDAYVDELEKQEKTKEKEKAKTPVAKKTEKMAMRKLTSMESQSDDITKVTQAAKIVERMVNQNTYDDVAQDFKYYEDTADEYRDQEGTLLPLWKFQNDKAKRLAVTALCWNPKYKDLFAVGHGSYDFMKQSRGMLLLYSMKNPSFPEYMFSSESGIMCLDVHVDHPYLVVVGYYDGNVAIYNLKKPHSQPCFRSTSKSGKHTDPVWQVKWQKDDMDHNLNFFSVSSDGRIVSWTLVKSELVHIDIIKLKTEGSTTEIPEGLQLHTVGCGTAFDFHKEIDYMFLVGTEEGKIYKCSKSYSSQFLDTYDAHNMAVDAVLWNPYHTKVFMSCSSDWTVKIWDHTIKTPMFIYDLNSAVGDVAWAPYSSTVFAAVTTDGKAHVFDLAVNKYEAICNQPVVAKKKNKITHVQFNPIHPIIIVGDDRGHIICLKLSPNLRKMPKEKKGQEVQKGPAVEIAKLDKLLNLVREVKTKT
